Laboratory results: US20190031761A1
No constants are given. Whether binding was seen depends on the method and setting.

Assays:
[1] = molecular target: recombinant human EGFR/ErbB1 Fc chimera protein (R&D systems, 344-ER) (human) (UniProt P00533); assay: SPR (Biacore T200), antibody captured with human Fab capture kit, antigen as analyte
[2] = molecular target: recombinant human EGFR/ErbB1 Fc chimera protein (R&D systems, 344-ER) (human) (UniProt P00533); assay: condition: 256 nM (same manner as for EGFRvIII; not printed on the sheet); SPR (Biacore T200), B4A3 captured as ligand, rhEGFR-Fc as sample, 25 C

B1: B4A3 antibody (human IgG1) (antibody, V domains shown)
VH: EVQLLESGGGLVQPGGSLRLSCAASGFTFSNYYMSWVRQAPGKGLEWVSGTSPNGGSKYYADSVKGRFTISRDNSKNTLYLQMNSLRAEDTAVYYCAKGRRKLRATRFDYWGQGTLVTVSS
VL: QSVLTQPPSASGTPGQRVTISCTGSSSNIGNNYVSWYQQHPGTAPKLLIYSDSNRPSGVPDRFSGSKSGTSASLAISGLRSEDEADYYCATWDASLSAYVFGGGTKLTVL
binding [1]: no binding
binding [2]: no binding
